Laboratory results: PubChem BioAssay AID1671195 (Yale University, 2021)

Assay: 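Regulators of LDL receptor activity judged by labelled LDL uptake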 (primary screen)
System: human Huh7 hepatoma cells
Reagent: siRNA pool against human genes, 18 nM
Duration: about 2 to 2.5 days of knockdown, then 8 h LDL uptake
Challenge: DiI-labelled LDL at 30 µg/ml for 8 h, in lipoprotein-deficient serum medium
Detection: 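Per-cell DiI-LDL intensity by automated imaging; well means scaled to the plate median and given as a robust z-score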
Reading the numbers: robust z-score: higher = more LDL uptake after knockdown
Rule for the call: 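Active when two or more replicates show a robust z-score above 2 or below -2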
In all, the deposit lists about 22,000 reagents; this is an unselected part. About 1,510 of them (6.9%) count as active. 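Active includes knockdowns raising or lowering LDL uptake; positive z-scores mean more uptake, negative mean less.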 No sequences are given here.

Gene,PubChem SID,"robust z-score, replicate 1","robust z-score, replicate 2","robust z-score, replicate 3",outcome
LOC440707 (retired record),SID442903756,-1.65,-1.02,-1.48,inactive
CACUL1,SID442889841,1.22,-0.45,0.735,inactive
CRP,SID442900298,-0.72,-0.804,-0.705,inactive
SCAP,SID442903090,-1.47,-0.95,-1.22,inactive
ZNF787,SID442895545,0.309,-0.21,-0.639,inactive
TBXA2R,SID442896329,-0.0306,-0.508,-0.241,inactive
SNCA,SID442884938,1.52,2.1,1.69,inactive
GATA3-AS1,SID442899890,-0.283,-0.843,-0.921,inactive
ADRB1,SID442898408,-0.0684,-0.958,-0.459,inactive
SPAG16,SID442883483,3.15,2.07,3.19,active
DPYD,SID442888026,0.688,0.741,0.956,inactive
UQCRH,SID442888563,0.371,0.503,1.22,inactive
COPG2,SID442893791,0.628,-1.06,0.465,inactive
FRMPD2,SID442892150,-0.683,0.697,0.594,inactive
CFAP57,SID442892522,-0.261,0.687,0.0448,inactive
LRRC37A11P,SID442886939,0.999,1.05,1.03,inactive
FNDC5,SID442890713,0.684,0.118,0.335,inactive
C1QL2,SID442892767,0.0113,-0.576,0.944,inactive
LINC01622,SID442887193,0.782,1.16,0.949,inactive
ABO,SID442896399,-0.492,0.187,-0.499,inactive
IGF2,SID442894162,0.255,-0.282,-0.074,inactive
IGF2,SID442904526,-1.67,-1.87,-1.52,inactive
HAPLN3,SID442887598,0.633,1.34,0.664,inactive
ST6GALNAC3,SID442886314,1.32,1.23,1.04,inactive
TMEM218,SID442900651,-0.805,-0.828,-0.731,inactive
MRPS25,SID442886700,1.04,0.523,1.69,inactive
RASSF9,SID442884379,-2.12,-1.98,-1.97,active
SEMA5B,SID442901511,-0.616,-0.768,-1.35,inactive
LOC440899 (retired record),SID442884032,2.17,1.75,2.22,active
TBX2,SID442903400,-1.55,-1.22,-1.1,inactive
AIP,SID442884392,-1.92,-2.15,-2.08,active
LOC400606 (retired record),SID442894644,-0.13,-0.151,0.0238,inactive
MRGBP,SID442904292,-1.7,-1.08,-1.91,inactive
CFAP96,SID442887674,0.988,0.812,0.794,inactive
TMED1,SID442887068,-0.0151,1.8,1.19,inactive
FGD4,SID442896317,-0.542,0.271,-0.506,inactive
RASA3,SID442898685,-0.542,-0.655,-0.381,inactive
LOC387710 (retired record),SID442892123,-0.17,0.366,0.419,inactive
PRMT8,SID442892091,-0.0585,-0.117,0.804,inactive
COG1,SID442894367,-0.38,-0.337,0.549,inactive
TRPM7,SID442893415,0.26,-0.605,0.505,inactive
EDDM3A,SID442891142,-0.213,-0.558,1.75,inactive
RNF113A,SID442897080,0.967,-1.12,-0.885,inactive
SPTBN5,SID442884649,1.77,1.66,2.75,inactive
ANKRD49,SID442899510,-0.629,-0.142,-1.12,inactive
MYO3A,SID442892918,0.639,-0.116,-0.192,inactive
CRHBP,SID442885030,1.35,1.23,2.57,inactive
KRT5,SID442902654,-0.96,-1.21,-1.19,inactive
PRR7,SID442889768,0.885,0.0834,0.57,inactive
ISG20L2,SID442888785,0.579,1.17,0.238,inactive
GLUD2,SID442897144,-0.296,-0.35,-0.409,inactive
SIX4,SID442898631,-0.739,-0.528,-0.296,inactive
NT5E,SID442892978,0.00804,0.0684,0.228,inactive
BTBD1,SID442888180,0.748,1.06,0.503,inactive
TMBIM4,SID442903533,-1.73,-1.36,-0.874,inactive
PALM,SID442888395,1.01,0.192,0.982,inactive
MTMR11,SID442902349,-1.13,-0.315,-1.72,inactive
GARIN2,SID442896552,0.231,-0.164,-0.923,inactive
NAV2,SID442900299,-0.656,-0.671,-0.902,inactive
ABI3BP,SID442897878,-0.749,0.00906,-0.564,inactive
EPHX1,SID442893803,-0.215,0.0344,0.207,inactive
ZNF808,SID442896845,-0.545,-0.00217,-0.411,inactive
TENT4A,SID442898064,0.104,-0.462,-1.01,inactive
MAPKAPK5,SID442900253,-0.635,-1.04,-0.528,inactive
LOC441666,SID442885145,1.21,1.98,1.79,inactive
CEBPA,SID442895466,-0.976,-0.703,1.16,inactive
CCDC47,SID442890621,0.851,0.751,-0.431,inactive
HVCN1,SID442901917,-0.748,-0.922,-1.28,inactive

Sorted by “robust z-score, replicate 1” (highest first): 3 of the entries above
Gene,PubChem SID,"robust z-score, replicate 1","robust z-score, replicate 2","robust z-score, replicate 3",outcome
NT5E,SID442892978,0.00804,0.0684,0.228,inactive
GLUD2,SID442897144,-0.296,-0.35,-0.409,inactive
SIX4,SID442898631,-0.739,-0.528,-0.296,inactive
